## Screening data, single-dose tests

Chains of the proteins cited; added tags and fusions are not shown.
UniProt P9WPC5, whole entry: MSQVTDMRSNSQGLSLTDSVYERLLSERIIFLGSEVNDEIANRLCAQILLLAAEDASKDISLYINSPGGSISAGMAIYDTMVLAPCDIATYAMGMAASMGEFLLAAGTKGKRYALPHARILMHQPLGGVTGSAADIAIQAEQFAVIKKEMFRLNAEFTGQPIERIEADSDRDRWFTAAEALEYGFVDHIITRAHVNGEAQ
UniProt P9WPC3, whole entry partner: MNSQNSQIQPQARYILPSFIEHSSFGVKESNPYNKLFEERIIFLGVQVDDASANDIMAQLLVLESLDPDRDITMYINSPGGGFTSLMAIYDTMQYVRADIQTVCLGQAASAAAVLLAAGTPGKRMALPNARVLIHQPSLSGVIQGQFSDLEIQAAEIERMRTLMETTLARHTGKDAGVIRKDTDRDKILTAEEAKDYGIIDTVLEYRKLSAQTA
UniProt I6X8D2, whole entry: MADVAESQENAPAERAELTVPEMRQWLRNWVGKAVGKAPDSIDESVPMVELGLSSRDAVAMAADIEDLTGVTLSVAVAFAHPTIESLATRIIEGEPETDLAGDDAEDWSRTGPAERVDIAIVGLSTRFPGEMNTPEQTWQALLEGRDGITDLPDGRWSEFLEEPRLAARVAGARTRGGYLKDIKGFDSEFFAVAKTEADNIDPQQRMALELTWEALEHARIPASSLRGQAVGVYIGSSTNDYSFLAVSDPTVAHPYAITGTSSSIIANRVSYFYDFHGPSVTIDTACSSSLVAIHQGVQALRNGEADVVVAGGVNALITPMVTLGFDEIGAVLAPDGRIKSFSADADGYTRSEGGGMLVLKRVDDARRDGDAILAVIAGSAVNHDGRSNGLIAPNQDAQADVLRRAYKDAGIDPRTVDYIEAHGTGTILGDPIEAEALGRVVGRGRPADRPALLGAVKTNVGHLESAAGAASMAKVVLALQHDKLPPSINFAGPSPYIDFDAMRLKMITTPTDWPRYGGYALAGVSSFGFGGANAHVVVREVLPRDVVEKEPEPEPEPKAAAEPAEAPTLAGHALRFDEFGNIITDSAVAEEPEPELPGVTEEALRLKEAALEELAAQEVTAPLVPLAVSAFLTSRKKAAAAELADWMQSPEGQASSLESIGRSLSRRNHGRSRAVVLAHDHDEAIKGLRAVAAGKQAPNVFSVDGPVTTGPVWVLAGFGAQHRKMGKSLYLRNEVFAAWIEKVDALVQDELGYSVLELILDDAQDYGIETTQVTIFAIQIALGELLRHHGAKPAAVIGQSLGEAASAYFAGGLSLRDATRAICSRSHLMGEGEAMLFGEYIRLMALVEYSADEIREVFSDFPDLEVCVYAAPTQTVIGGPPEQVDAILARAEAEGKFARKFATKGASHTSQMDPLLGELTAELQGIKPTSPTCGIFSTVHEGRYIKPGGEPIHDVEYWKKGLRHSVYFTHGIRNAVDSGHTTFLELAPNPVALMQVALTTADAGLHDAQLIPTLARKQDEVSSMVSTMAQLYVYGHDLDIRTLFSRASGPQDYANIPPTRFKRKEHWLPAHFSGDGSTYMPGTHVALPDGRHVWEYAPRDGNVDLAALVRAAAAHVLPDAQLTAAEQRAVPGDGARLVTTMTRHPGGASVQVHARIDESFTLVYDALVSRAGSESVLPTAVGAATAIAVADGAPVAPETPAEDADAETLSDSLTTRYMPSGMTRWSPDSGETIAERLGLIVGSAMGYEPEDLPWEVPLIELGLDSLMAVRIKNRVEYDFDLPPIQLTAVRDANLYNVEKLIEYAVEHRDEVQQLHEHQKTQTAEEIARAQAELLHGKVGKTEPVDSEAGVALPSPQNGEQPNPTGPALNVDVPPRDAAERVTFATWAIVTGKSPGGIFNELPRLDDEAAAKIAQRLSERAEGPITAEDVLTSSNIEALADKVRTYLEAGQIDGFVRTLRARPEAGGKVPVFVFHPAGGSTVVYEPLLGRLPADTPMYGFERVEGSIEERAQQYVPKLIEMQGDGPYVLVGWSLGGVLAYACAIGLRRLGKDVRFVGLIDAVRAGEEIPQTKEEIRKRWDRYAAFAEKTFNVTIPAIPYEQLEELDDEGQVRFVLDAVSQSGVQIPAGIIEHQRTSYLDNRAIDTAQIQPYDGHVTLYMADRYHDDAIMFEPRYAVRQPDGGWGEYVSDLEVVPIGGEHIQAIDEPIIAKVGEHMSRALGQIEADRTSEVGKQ

ClpP1P2: 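Protease assay of ClpP1P2, read by the AMC dye that it sets free. Target: ClpP1P2, Mycobacterium tuberculosis (UniProt P9WPC5 and UniProt P9WPC3). Compounds at 50 µM. Higher reads as stronger inhibition, judged from the few compounds that gave an IC50. Most other retested compounds had strongly negative values. About 69,000 compounds were tested under these conditions; 0.015% (about 10) showed 50% or more at least once.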
Pks13 thioesterase: 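Polyketide synthase Pks13, Mycobacterium tuberculosis (UniProt I6X8D2). Enzyme assay of the thioesterase domain of polyketide synthase 13; the read-out is not stated. Concentration: 30 µM. Higher reads as stronger inhibition (inferred from which compounds were picked for retests). Of about 67,000 compounds tested this way, about 300 (0.46%) reached 50% or more in at least one test.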

Each number is a percent effect as filed. The record does not define 0% and 100%; most values in the screen are far below 50% and negative numbers occur (in some assays of this library far below -100). This is an unselected part of the compounds tested. A dash means the value is not listed here; it may have been measured.

SMILES | ClpP1P2 | Pks13 thioesterase
c1ccc(-c2cc(CN3C[C@@H]4CC[C@H](C3)N(CC3CC3)C4)on2)cc1 | 4.045% | 7.269%
CC(C)C(=O)N1Cc2ccccc2CC2(CCCN2C)C1 (stereo not drawn) | -4.847% | -7.47%
COC[C@@H]1CC[C@H]2[C@H](CCN2S(=O)(=O)Cc2ccccc2)O1 | 5.579% | -27.3%
CCNC(=O)CN1CCOC(c2ccccc2C(F)(F)F)C1 (stereo not drawn) | 3.327% | 11.08%
O=C(Cc1ccc2c(c1)CCCC2)NCCc1ccccn1 | 5.529% | -11.16%
CCN1C(=O)CCC12CCN(C(=O)c1ccco1)CC2 | 8.574% | -23.58%
O=C(NCCC(O)c1ccco1)c1ccccc1Br (stereo not drawn) | 2.244% | -24.56%
CC(C)Oc1cc(N2CCC(C(N)=O)CC2)nc(N)n1 | -0.08354% | -24.58%
O=C([C@H]1CC[C@@H]2[C@@H](CCN2C2CCCC2)O1)N1CCOCC1 | 1.368% | -1.552%
O=C(CCC(=O)c1ccccc1)NC1(C(=O)NCC2CC2)CCCC1 | -4.882% | -12.1%
O=S(=O)(Cc1ccon1)N1CCN(c2ccncc2Cl)CC1 | -8.34% | -0.8152%
CN1CCC(NC(=O)c2cc(Br)cc(Cl)c2O)C1=O (stereo not drawn) | -50.45% | 11.6%
O=C(C1SCCc2ccccc21)N1CCC(O)CC1 (stereo not drawn) | -6.224% | -10.57%
CCOc1nc2cnccc2n(CC(=O)Nc2ccccc2OC)c1=O | 11.3% | -12.91%
COCC(=O)NCCc1nc(N(C)C)ncc1-c1ccncc1 | -17.26% | 5.834%
CC(C)N1c2sc(-c3ccsc3)nc2CC1C(=O)NC1CC1 (stereo not drawn) | -1.27% | -15.07%
c1nc2c(c(NCCCn3cncn3)n1)CCN(CC1CCOC1)CC2 (stereo not drawn) | -5.239% | -41.35%
NC(=O)c1ccc(N2CCN(Cc3ccc(F)cc3Cl)CC2)nn1 | -2.367% | -18.27%
CCCN(Cc1nccn1C)C(=O)c1cc(C(C)C)on1 | -18.57% | -0.6396%
CCOc1cc(CN(C)CC(C)(C)O)ccc1OC(F)F | -11.05% | 17.83%
c1ccc(CN2CCc3ncnc(-c4cncnc4)c3CC2)nc1 | 17.1% | -3.08%
CC(=O)N1C[C@@H]2CN(Cc3cccnc3)CCO[C@@H]2C1 | 2.262% | -8.812%
Fc1ccccc1NCc1nc2n(n1)CCCCC2 | 5.749% | 3.387%
Cc1ccc(F)cc1C(=O)OCC1CCCN1C(N)=O (stereo not drawn) | -0.2609% | -
O=C(NCC(O)c1cccs1)c1sccc1OC(F)F (stereo not drawn) | -10.15% | -40.24%
CNC(=O)NC(=O)CCN1CCCC1c1nc(C2CCCCC2)co1 (stereo not drawn) | -2.534% | -42.36%
COc1ncnc2c1CCN(Cc1cccc(C)n1)CC2 | -4.241% | -9.723%
CC(Cn1cncn1)NC(=O)Nc1ccc(COC2CCCC2)cc1 (stereo not drawn) | -6.596% | -6.01%
Cc1ccc(C)c(CC(=O)Nc2cccc(C(=O)N(C)C)n2)c1 | -11.51% | -
OCCN1CC2(CCN(CC3CC3)CC2)c2ccccc21 | 0.03381% | 11.63%
c1ccc(SCCN2CCN(CCn3cncn3)CC2)cc1 | 2.862% | -18.99%
Cc1cccc2[nH]c(C3CCN(C(=O)c4ccc[nH]4)CC3)nc12 | -7.099% | 0.7086%
Cc1ccc(NC(=O)N2CCCC2)c(OCC2CCCO2)c1 (stereo not drawn) | -1.627% | -1.989%
CN1CCN(Cc2ccc(-c3ccc4[nH]ccc4c3)nc2)CC1 | -6.82% | -47.74%
O=C1COC2(CCN(C(=O)c3ccoc3)CC2)CN1Cc1ccccn1 | -0.9269% | 1.174%
O=C(CC1CCCC1)Nc1ccc(-n2cc(Cl)cn2)nc1 | -3.494% | -24.91%
O=C(N[C@@H]1CN(Cc2ccc3c(c2)OCO3)[C@@H]2CCCO[C@@H]21)C1CC1 | -2.579% | -14.69%
CNc1cc2c(nn1)CCN(C(=O)c1cc(C)no1)C2 | -34.34% | -16%
Cc1cccnc1CNC(=O)CC1C(=O)NCCN1CC(C)(C)C (stereo not drawn) | -10.4% | -7.902%
CCc1ccsc1C(=O)NC(C#N)CC(C)C (stereo not drawn) | 15.56% | 1.007%
Cc1csc2cc(C(=O)NC3CCCC3)cnc12 | 5.183% | 17.07%
O=C(Cn1cc(C2CC2)nn1)N(Cc1ccco1)CC1CCCO1 (stereo not drawn) | 10.73% | 0.7117%
N#CCCN(Cc1ccco1)C(=O)CCCc1ccccc1 | -1.616% | 0.1478%
CNS(=O)(=O)CC1CCCN1C(=O)c1cccc(Cl)c1 (stereo not drawn) | -8.365% | 10.71%
O=C(C[C@@H]1COC[C@H]2CN(Cc3ccncc3)C[C@@H]12)N1CCCC1 | 5.239% | 9.482%
Cc1ccc(NC(=O)C2CSCN2C(=O)c2cccnc2)c(C)c1 (stereo not drawn) | -5.149% | -33.74%
Cn1cnnc1SCC(=O)N1C[C@H]2CC[C@@H]1CN(Cc1cccnc1)C2 | -3.68% | -15.23%
Cc1cc(N(C)CCC(O)c2ccccc2)n2nccc2n1 (stereo not drawn) | -5.04% | -12.09%
CCn1nc(C)c(C(=O)N2CCC(Nc3ccc(C)nn3)CC2)c1C | -0.5521% | 1.196%
Cc1nc(CN2CCO[C@@H]3CN(Cc4nccs4)C[C@@H]3C2)cs1 | 1.644% | -19.34%
CC(C)n1c(C(=O)N2CCCC2)nc2c1CCN(C)C2 | -2.51% | -13.64%
CCC(Nc1nc(C(F)(F)F)nc2ccccc12)C(=O)O (stereo not drawn) | 10.96% | -3.024%
COCCNc1ccc(CC2CCCN(Cc3c[nH]cn3)C2)nn1 (stereo not drawn) | 6.197% | -4.09%
N[C@H]1CN(C(=O)c2ccc(CO)cc2)C[C@@H]1C1CC1 | -5.503% | -2.031%
CCS(=O)(=O)N1C[C@H]2C[C@H](C(=O)N(C)C)[C@@H](C1)O2 | 7.833% | -18.22%
CC(=O)N1CCN(C(=O)NCCCc2cn[nH]c2C)CC1 | 0.1589% | -23.28%
COc1ccc(CCN2C(=O)O[C@@H]3CN(C4CCSCC4)C[C@@H]32)cc1 | -10.06% | 27.12%
Cc1cc(CN2CCN(CC(O)c3ccc(Cl)cc3)CC2)no1 (stereo not drawn) | -3.902% | -4.938%
Cc1cc(C(=O)N2CCCC2c2noc(C(C)C)n2)c(C)o1 (stereo not drawn) | -28.03% | -0.4466%
c1cc(CNCc2cccc3c2OCCCO3)cc(Cn2cncn2)c1 | -15.36% | -2.568%
O=C1CCCc2[nH]c(=O)c(C(=O)N(Cc3ccsc3)C3CC3)cc21 | -22.24% | -6.328%
COCCN(C)C[C@@H]1CCC[C@@H]2CN(c3cc(OC)ncn3)C[C@@H]21 | 3.212% | -15.42%
CN1CCC(N(C)CCC(=O)N2CCC(OCc3ccccc3)CC2)C1 (stereo not drawn) | 16.63% | -4.471%
CCC[C@H]1CN(CCS(C)(=O)=O)C[C@@H]1NC(=O)c1ccccc1F | -5.3% | -23.47%
COCCN1C(=O)[C@]2(CC[C@@H]3CN(Cc4ccccc4F)C[C@@H]32)N=C1C | -0.6801% | -17.38%
O=C(CSc1nnc[nH]1)NCc1cccs1 | 11.83% | -7.938%
O=C(NC[C@]12COC[C@H]1CN(Cc1cccnc1)C2)c1ccsc1 | 5.719% | -4.813%
CC(NC(=O)NCCCOC1CCCCC1)c1nncn1C (stereo not drawn) | 10.91% | -4.991%
O=C(c1ccc(C2CCCN2)s1)N1CCN2CCC1CC2 (stereo not drawn) | -1.245% | -21.77%
CC(=O)N1CCC2(CC1)[C@@H]1CN(Cc3cccnc3)C[C@@H]1C(=O)N2C | 7.841% | -
CCN1CCN(CCC(=O)NC2CC(c3cccc(Cl)c3)C2)CC1 (stereo not drawn) | 6.529% | -21.82%
CN1CCC(C(=O)N2CCCN(c3cccnn3)CC2)C1 (stereo not drawn) | -3.336% | 6.341%
CCn1ccnc1CN1C[C@@H](NC(=O)C2CC2)[C@H](c2ccc(C)cc2)C1 | 1.443% | -20.98%

7 of the entries, repeated:

For O=C(C1SCCc2ccccc21)N1CCC(O)CC1 (stereo not drawn) the result was ClpP1P2: -6.224%; Pks13 thioesterase: -10.57%.
For CN1CCC(N(C)CCC(=O)N2CCC(OCc3ccccc3)CC2)C1 (stereo not drawn) the result was ClpP1P2: 16.63%; Pks13 thioesterase: -4.471%.
For O=C(C[C@@H]1COC[C@H]2CN(Cc3ccncc3)C[C@@H]12)N1CCCC1 the result was ClpP1P2: 5.239%; Pks13 thioesterase: 9.482%.
For CC(Cn1cncn1)NC(=O)Nc1ccc(COC2CCCC2)cc1 (stereo not drawn) the result was ClpP1P2: -6.596%; Pks13 thioesterase: -6.01%.
For CCC[C@H]1CN(CCS(C)(=O)=O)C[C@@H]1NC(=O)c1ccccc1F the result was ClpP1P2: -5.3%; Pks13 thioesterase: -23.47%.
For Fc1ccccc1NCc1nc2n(n1)CCCCC2 the result was ClpP1P2: 5.749%; Pks13 thioesterase: 3.387%.
For CC(C)n1c(C(=O)N2CCCC2)nc2c1CCN(C)C2 the result was ClpP1P2: -2.51%; Pks13 thioesterase: -13.64%.

From ChEMBL document CHEMBL3988442, “University of Dundee, Small-Polar-MMV Screening Library” (2021).